The nature of this test: qHTS Assay to Find Inhibitors of Chronic Active B-Cell Receptor Signaling. Conditions: ABC-DLBCL IkBa-CBG/CBR reporter, luminescence ratio (green luciferase fused to IkBa over red control in TMD8 lymphoma cells), 4 h. A digest of the protocol: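 Doxycycline induced both beetle luciferases in TMD8 lymphoma cells; IKK-driven degradation limits the IkappaBalpha-fused green signal, while red luminescence normalises for cell number and nonspecific effects. Compounds tested up to 46 uM, 4 hrs.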

The mark [1] stands for this setting: measured here: CBR red luminescence, cell number.
The mark [2] stands for this setting: measured here: IkBa-CBG green luminescence.

This is one part of the list. These are further read-outs of the screen, such as a control signal, another cell line or another target. No call is given for them. The list favours compounds with an active or inconclusive main result. Potencies come from curve fits of mixed quality, noted in brackets.

In general, AC50 refers to the concentration at which the activity in the assay is half-maximal. With `COc1ccc(/C=C2\Oc3ccccc3C2=O)cc1`, the AC50 under setting [1] was 13 µM [falling, single point]. On the same count and under the same terms, under `COCCNC(=O)C(c1ccc(F)cc1)N(C(=O)CCC(=O)Nc1nccs1)c1cccc(C)c1` (centres undefined) stands 22.4 µM [falling, single point]; under `Oc1[nH]c2ccccc2c1C=Nc1ccccc1`, 10 µM [falling, partial curve]. The same measure, in the same setting: the value for `COc1ccc(C(=O)N2CCC(O)(c3ccc(F)cc3)CC2)cc1OC` was 3.26 µM [falling, single point]; that for `O=C(NCc1ccccc1)c1cc(-c2ccco2)on1` was 16.4 µM [falling, partial curve, poor fit]. On the same count and under the same terms, under `O=C(c1ccccc1Sc1ccc([N+](=O)[O-])cc1)N1CCCCC1` stands 13 µM [rising, partial curve]; under `Cc1ccc(NC(=O)c2cc(-c3ccco3)on2)cc1C`, 7.08 µM [falling, full curve].

In the case of `CC(OC(=O)c1ccco1)C(=O)Nc1nc(-c2ccccc2)cs1` (centres undefined), under setting [1], the half-maximal activity concentration (AC50) was 29.1 µM [falling, single point]. The same measure, in the same setting: the value for `COc1ccc(N2C(=O)CN=C2Nc2nc(C)cc(C)n2)cc1` was 3.66 µM [falling, partial curve, poor fit]. Same read-out and setting: the value for `Cc1ccc(Nc2cc(C)nc(-c3ccccc3O)n2)cc1` was 8.2 µM [falling, single point]; that for `Cc1ccc2nc(/C(C#N)=C\c3cc(O)ccc3[N+](=O)[O-])[nH]c2c1` was 2.82 µM [falling, partial curve, poor fit]; that for `Cc1nnc(NC(=O)c2cc(S(=O)(=O)N3CCCCC3)ccc2Cl)s1` was 25.1 µM [falling, single point]. Same read-out and setting: under `Cc1csc(NC(=O)Nc2cccc(Cl)c2)n1` stands 16.4 µM [falling, single point]; under `CC(C)(C)c1ccc2c(c1)C(=O)c1ccccc1C2=O`, 10.3 µM [rising, partial curve, poor fit]; under `O=C1c2ccccc2-c2nc3ccccc3n21`, 8.91 µM [falling, single point]. Turning to `CN(C)c1ccc(C(CN)c2c[nH]c3ccccc23)cc1` (centres undefined), under setting [1], the AC50 was 35.5 µM [falling, single point].

On to `COc1ccc(C(=O)NCc2ccc3c(c2)CCN3C(=O)c2cccc(C)c2)cc1OC`, for which the AC50 under setting [1] is 15.8 µM [falling, single point]. With `O=C(NC(=S)Nc1ccc(N2CCN(C(=O)c3ccccc3)CC2)cc1)c1cccs1`, the AC50 under setting [1] was 7.08 µM [falling, full curve, poor fit].

Consider `N/C(=N\N=C\c1ccc(O)c(O)c1)c1nonc1N`, for which the half-maximal activity concentration (AC50) under setting [1] was 14.1 µM [falling, single point]. Still for that read-out and setting: under `CCCOc1ccc(C2NC(=O)NC(c3ccccc3)=C2C(C)=O)cc1OCC` (centres undefined) stands 0.259 µM [falling, full curve, poor fit]; under `O=C(COC(=O)c1ccc(F)c(S(=O)(=O)N2CCOCC2)c1)NCc1ccccc1`, 3.66 µM [rising, full curve, poor fit]; under `Nc1[nH]c(N=NC(=O)c2ccccc2O)c2ccccc12`, 2.91 µM [falling, full curve].

`O=C(Nc1ccncc1)c1ccccc1F`: under setting [1], the AC50 was 20 µM [falling, single point]. The same measure, in the same setting: the value for `CN(C)c1ccc(C(=O)Nc2nc3c(s2)CCCC3)cc1` was 6.51 µM [falling, full curve]. `COc1ccc2[nH]c(=O)c3c(c2c1)OC(C)(C)C=C3`: the concentration at half-maximal activity (AC50) is, setting by setting: under setting [1], 11.2 µM [falling, partial curve]; under setting [2], 8.91 µM [rising, partial curve, poor fit]. With `Cc1nn(-c2ccccc2)c(C)c1C(=O)NCc1ccc(S(N)(=O)=O)cc1`, the half-maximal activity concentration (AC50) under setting [1] was 14.1 µM [falling, single point]. Still for that read-out and setting: the value for `CCCCCNC(=O)c1cccc(S(=O)(=O)N2CC3(C)CC2CC(C)(C)C3)c1` (centres undefined) was 20.6 µM [falling, single point]. In the case of `CC(=O)Oc1ccc(N2C(=O)C3C4C=CC(CO)(O4)C3C2=O)cc1` (centres undefined), the half-maximal activity concentration (AC50) is 20.6 µM [falling, single point] under setting [1] and 14.6 µM [rising, partial curve, poor fit] under setting [2].

In the case of `O=C(COc1ccccc1F)Nc1ccc2c(c1)OCCO2`, the half-maximal activity concentration (AC50) under setting [1] is 35.5 µM [falling, single point].

Consider `CCOCC(O)CNC(=O)c1ccc(OC2CCN(C(=O)c3cccnc3)CC2)cc1` (centres undefined), for which, under setting [1], the half-maximal activity concentration (AC50) is 11.2 µM [rising, partial curve]. Still for that read-out and setting: the value for `O=C(NCc1ccco1)c1cc(-c2ccccc2)on1` was 10.3 µM [falling, partial curve]. On the same count and under the same terms, under `CCCC(=O)NNC(=O)CCC(=O)Nc1ccccc1Cl` stands 7.08 µM [rising, full curve, poor fit]. On the same count and under the same terms, under `CN1c2ccc(Cl)cc2C(=O)NC1C1CC=CCC1` (centres undefined) stands 1.41 µM [rising, partial curve]; under `O=C(Nc1ccc(Cl)cc1)Nc1ccc(Cl)c(Cl)c1`, 29.1 µM [falling, single point]; under `O=C(NCc1ccccc1F)C1CCCN1C(=O)Nc1cccc(F)c1` (centres undefined), 3.98 µM [rising, partial curve]. With `CCN(CC)c1ccc(NC(=O)CN2CCN(CC(=O)Nc3ccccc3F)CC2)cc1`, under setting [2], the concentration at half-maximal activity (AC50) is 16.4 µM [falling, partial curve, poor fit]. For `O=C(CSCc1ccccc1Cl)NCc1ccc(Cl)c(Cl)c1`, the concentration at half-maximal activity (AC50) under setting [1] was 1.58 µM [rising, partial curve, poor fit]. In the case of `COc1ccc(OCC(O)Cn2c(Br)nc3c2c(=O)[nH]c(=O)n3C)cc1` (centres undefined), the half-maximal activity concentration (AC50) reads like this: under setting [1], 32.6 µM [rising, partial curve, poor fit]; under setting [2], 29.1 µM [falling, single point]. For `C=CCNC(=S)NNC(=O)c1ccc(OCC(C)C)cc1`, under setting [1], the AC50 is 0.13 µM [falling, full curve, poor fit].

As for `CCOc1cc(/C=N/NC(=O)c2cccnc2)ccc1OC(=O)c1ccco1`, the AC50 under setting [1] was 0.501 µM [falling, partial curve, poor fit]. Same read-out and setting: the value for `COc1ccc(NS(=O)(=O)c2ccc(NC(=S)NC(=O)CC(C)C)cc2)cc1` was 0.411 µM [rising, full curve, poor fit]; that for `O=C(Nc1ccc(SC(F)F)cc1)C1=COCCO1` was 2.31 µM [rising, partial curve, poor fit]; that for `Cc1ccccc1/C=N/NC(=O)Cc1ccc(Cl)cc1` was 3.55 µM [rising, full curve, poor fit]. Regarding `CC(=O)N1CCN(c2nc3c(C)ccc(Cl)c3s2)CC1`, the AC50 under setting [1] was 5.62 µM [rising, single point].

Consider `Cc1ccc2nc(N3C(=O)C(O)=C(C(=O)c4ccc(C)o4)C3c3cccc(O)c3)sc2c1` (centres undefined), for which the half-maximal activity concentration (AC50) under setting [1] is 0.447 µM [falling, full curve, poor fit]. Same read-out and setting: under `O=C(CCn1c(=O)oc2ccc(Cl)cc21)N1CCN(c2ccccc2)CC1` stands 5.62 µM [rising, single point]; under `Nc1ccc(/C=C/c2ccc3ncccc3c2)cc1`, 35.5 µM [falling, single point]. Consider `O=C1C=C(c2ccccc2)C(=O)N1Nc1ccccc1`, for which the AC50 by setting is: under setting [1], 23.1 µM [rising, partial curve, poor fit]; under setting [2], 25.9 µM [falling, single point]. As to `O=C(NCC(=O)N1CCN(c2ccccc2O)CC1)c1cccs1`, the AC50 under setting [1] was 29.1 µM [falling, single point]. The same measure, in the same setting: the value for `NNC(=O)c1ccc(Oc2cc(Cl)cc(Cl)c2)o1` was 8.91 µM [falling, partial curve, poor fit]; that for `CCC(C)Sc1nc2c(cnn2-c2ccc(C)c(C)c2)c(=O)[nH]1` (centres undefined) was 13 µM [rising, partial curve, poor fit]; that for `Cc1nn(-c2ccccc2)c(C)c1CCC(=O)O` was 8.91 µM [falling, partial curve].

For the compound `CCOC(=O)C1CCCN(C(=O)CCc2nc3sc4c(c3c(=O)[nH]2)CCCC4)C1` (centres undefined), the AC50 under setting [1] is 0.58 µM [rising, full curve, poor fit]. Same read-out and setting: under `COC(=O)c1ccccc1S(=O)(=O)Oc1ccc(-c2ccc(C(=O)O)cc2)cc1` stands 2 µM [falling, partial curve]; under `CCC(=O)Nc1nnc(SCC(=O)N2c3ccccc3CC2C)s1` (centres undefined), 23.1 µM [rising, partial curve, poor fit]. The same measure, in the same setting: under `CC1CN(C(=O)CCC(=O)N2CCOCC2)c2ccccc2O1` (centres undefined) stands 1.58 µM [falling, full curve]. Regarding `NNC(=O)c1cc2ccccc2cc1NS(=O)(=O)c1ccccc1`, under setting [1], the AC50 was 20 µM [rising, partial curve, poor fit]. On the same count and under the same terms, the value for `Cc1cc(C)nc(SCc2ccc(C(=O)N/N=C3\CC(C)CC(C)(C)C3)cc2)n1` (centres undefined) was 23.1 µM [rising, single point]; that for `COc1cc2c(C#N)c(N3CCCCC3)nc(N)c2c(N)n1` was 2 µM [falling, partial curve, poor fit]. Still for that read-out and setting: the value for `O=C(Nc1cccc(NC(=O)c2cccs2)c1)c1ccc(F)cc1` was 35.5 µM [falling, single point]; that for `O=C(O)CCC(=O)N1CCc2cc(S(=O)(=O)N3CCC(Cc4ccccc4)CC3)ccc21` was 20.6 µM [falling, partial curve, poor fit]; that for `O=C(CSC1=NS(=O)(=O)c2ccccc2N1)c1ccccc1` was 4.61 µM [falling, partial curve]. With `O=C(O)c1ccc(N/N=C/c2cc3c(cc2[N+](=O)[O-])OCO3)cc1`, the AC50 is 0.0891 µM [falling, full curve, poor fit] under setting [1] and 3.16 µM [rising, full curve, poor fit] under setting [2]. Turning to `C/C(CC(=O)Nc1ccc2ccccc2c1)=N\NC(=O)c1ccc(O)c(O)c1`, the AC50 under setting [1] was 2.51 µM [falling, full curve, poor fit].

The record behind these values is PubChem BioAssay AID493014 (National Center for Advancing Translational Sciences (NCATS), 2011).
